According to the supplement of paper PMC6078165:

Test system: MDAMB231
Assay: relative JC-1 red fluorescence (viability) vs pre-drug, coculture with fibroblast (fraction); higher = more viable cancer cells
Experimental: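 JC-1 labelled TNBC cells cocultured 1:1 (1,500 cells each) with CellTrace Violet stained primary or stromal fibroblasts in 384-well plates in FluoroBrite medium, treated with one of 42 anticancer drugs at 0.1, 1, 10 or 100 uM. JC-1 red fluorescence (mitochondrial integrity in cancer cells only) was read by plate reader every 8 h for 72 h. Values are normalised to each well's pre-drug value. The stock of one drug was tenfold lower, so its dose labels may be too high.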

CCN(CC)CCNC(=O)c1c(C)[nH]c(/C=C2\C(=O)Nc3ccc(F)cc32)c1C [Sunitinib]
relative JC-1 red fluorescence
Conditions	8 h	16 h	24 h	32 h	40 h	48 h	56 h	64 h	72 h
0.1 µM, coculture fibroblast: C12385	0.736	0.70102	0.667	0.623	0.5594	0.541	0.503	0.51	0.491
0.1 µM, coculture fibroblast: H6013	0.865	0.818	0.794	0.79	0.762	0.752	0.743	0.714	0.682
0.1 µM, coculture fibroblast: H6019	0.768	0.721	0.696	0.644	0.606	0.601	0.564	0.549	0.508
0.1 µM, coculture fibroblast: H6076	0.854	0.803	0.761	0.751	0.716	0.681	0.657	0.6425	0.637
0.1 µM, coculture fibroblast: H6231	0.898	0.808	0.747	0.696	0.65	0.614	0.58	0.56	0.541
0.1 µM, coculture fibroblast: HADF	0.842	0.816	0.785	0.756	0.735	0.71	0.698	0.693	0.653
0.1 µM, coculture fibroblast: HCFa	0.875	0.833	0.799	0.757	0.715	0.6692	0.6406	0.6147	0.58
0.1 µM, coculture fibroblast: HCPF	0.903	0.813	0.759	0.747	0.699	0.661	0.632	0.608	0.599
0.1 µM, coculture fibroblast: HHSteC	0.906	0.876	0.85	0.804	0.78	0.755	0.723	0.695	0.65
0.1 µM, coculture fibroblast: HMF	0.854	0.7965	0.76	0.731	0.699	0.662	0.624	0.614	0.598
0.1 µM, coculture fibroblast: HPFa	0.928	0.882	0.847	0.7948	0.775	0.731	0.68	0.647	0.6
0.1 µM, coculture fibroblast: HUF	0.856	0.772	0.788	0.7	0.646	0.622	0.577	0.5703	0.5484
0.1 µM, coculture fibroblast: Hs5	0.834	0.783	0.751	0.716	0.676	0.628	0.6	0.575	0.546
0.1 µM, coculture fibroblast: Hs27A	0.874	0.831	0.7992	0.776	0.74	0.6923	0.682	0.662	0.614
0.1 µM, coculture fibroblast: Hs343T	0.8562	0.7589	0.692	0.665	0.622	0.589	0.545	0.532	0.518
0.1 µM, coculture fibroblast: WS1	0.7531	0.712	0.658	0.619	0.578	0.558	0.518	0.508	0.4874
1 µM, coculture fibroblast: C12385	0.735	0.728	0.708	0.687	0.615	0.599	0.569	0.579	0.56
1 µM, coculture fibroblast: H6013	0.884	0.8508	0.8227	0.816	0.7883	0.757	0.754	0.735	0.69
1 µM, coculture fibroblast: H6019	0.788	0.731	0.7341	0.685	0.644	0.6276	0.5939	0.582	0.541
1 µM, coculture fibroblast: H6076	0.871	0.844	0.842	0.834	0.806	0.774	0.76026	0.7355	0.7359
1 µM, coculture fibroblast: H6231	0.9234	0.8473	0.817	0.774	0.724	0.694	0.659	0.643	0.616
1 µM, coculture fibroblast: HADF	0.872	0.8429	0.817	0.7992	0.783	0.755	0.757	0.748	0.713
1 µM, coculture fibroblast: HCFa	0.901	0.837	0.815	0.8	0.77	0.738	0.721	0.7	0.663
1 µM, coculture fibroblast: HCPF	0.8561	0.8042	0.7715	0.7593	0.7121	0.6923	0.6592	0.6349	0.6178
1 µM, coculture fibroblast: HHSteC	0.9	0.88	0.857	0.83	0.81	0.783	0.754	0.738	0.704
1 µM, coculture fibroblast: HMF	0.906	0.908	0.781	0.792	0.728	0.768	0.73	0.748	0.672
1 µM, coculture fibroblast: HPFa	0.845	0.94	0.913	0.876	0.869	0.845	0.8	0.792	0.752
1 µM, coculture fibroblast: HUF	0.848	0.776	0.803	0.722	0.679	0.67	0.632	0.621	0.611
1 µM, coculture fibroblast: Hs5	0.8961	0.865	0.842	0.816	0.782	0.743	0.722	0.688	0.662
1 µM, coculture fibroblast: Hs27A	0.914	0.866	0.843	0.82	0.785	0.716	0.729	0.707	0.66
1 µM, coculture fibroblast: Hs343T	0.905	0.85	0.822	0.782	0.738	0.692	0.644	0.624	0.599
1 µM, coculture fibroblast: WS1	0.731	0.712	0.661	0.655	0.613	0.595	0.559	0.555	0.537

The reference is the same well before dosing, and untreated signal decays as well.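 Fibroblast labels name human fibroblasts: mostly primary ones from tissues such as uterus (C12385, HUF), lung (H6013), bone (Hs27A), adrenal (HADF) and skin (WS1), plus mammary HMF and breast cancer-associated Hs343T. The cancer cells are basal-like or mesenchymal-like triple-negative breast cancer lines. The paper calls a changed response a hit when it shifts by more than 3x the replicate standard deviation. The tissue of the other fibroblasts is not given here.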
